From the supplement of paper PMC10849652
The list shows a part of the results.

By UniProt entry, the sequences of proteins in these tests, tags left out. Where a name states a change or a piece, a line headed by the entry shows the natural chain unless it says otherwise.
UniProt P20645: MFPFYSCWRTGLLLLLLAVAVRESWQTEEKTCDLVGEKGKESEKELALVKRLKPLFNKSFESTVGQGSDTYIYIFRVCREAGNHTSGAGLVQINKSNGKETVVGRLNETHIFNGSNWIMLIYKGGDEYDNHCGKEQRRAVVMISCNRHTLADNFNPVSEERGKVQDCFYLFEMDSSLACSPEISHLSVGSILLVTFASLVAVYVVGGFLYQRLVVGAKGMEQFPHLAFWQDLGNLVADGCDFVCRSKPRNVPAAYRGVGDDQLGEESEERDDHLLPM
UniProt Q9UPY8, whole entry, looked up: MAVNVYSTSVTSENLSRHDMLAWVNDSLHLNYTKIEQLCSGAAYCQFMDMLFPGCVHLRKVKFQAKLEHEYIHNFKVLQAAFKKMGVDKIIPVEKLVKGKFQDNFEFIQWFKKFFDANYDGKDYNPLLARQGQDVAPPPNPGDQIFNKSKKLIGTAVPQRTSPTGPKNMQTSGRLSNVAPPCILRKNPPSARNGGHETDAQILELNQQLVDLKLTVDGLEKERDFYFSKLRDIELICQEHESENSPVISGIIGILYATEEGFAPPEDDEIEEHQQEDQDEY
UniProt Q8WZA0: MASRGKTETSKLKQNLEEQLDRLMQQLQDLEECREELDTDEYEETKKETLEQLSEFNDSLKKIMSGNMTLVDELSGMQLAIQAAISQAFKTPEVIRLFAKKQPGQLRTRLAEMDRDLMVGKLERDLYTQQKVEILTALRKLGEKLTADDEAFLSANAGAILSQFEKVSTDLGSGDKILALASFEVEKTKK
UniProt Q3KQU3: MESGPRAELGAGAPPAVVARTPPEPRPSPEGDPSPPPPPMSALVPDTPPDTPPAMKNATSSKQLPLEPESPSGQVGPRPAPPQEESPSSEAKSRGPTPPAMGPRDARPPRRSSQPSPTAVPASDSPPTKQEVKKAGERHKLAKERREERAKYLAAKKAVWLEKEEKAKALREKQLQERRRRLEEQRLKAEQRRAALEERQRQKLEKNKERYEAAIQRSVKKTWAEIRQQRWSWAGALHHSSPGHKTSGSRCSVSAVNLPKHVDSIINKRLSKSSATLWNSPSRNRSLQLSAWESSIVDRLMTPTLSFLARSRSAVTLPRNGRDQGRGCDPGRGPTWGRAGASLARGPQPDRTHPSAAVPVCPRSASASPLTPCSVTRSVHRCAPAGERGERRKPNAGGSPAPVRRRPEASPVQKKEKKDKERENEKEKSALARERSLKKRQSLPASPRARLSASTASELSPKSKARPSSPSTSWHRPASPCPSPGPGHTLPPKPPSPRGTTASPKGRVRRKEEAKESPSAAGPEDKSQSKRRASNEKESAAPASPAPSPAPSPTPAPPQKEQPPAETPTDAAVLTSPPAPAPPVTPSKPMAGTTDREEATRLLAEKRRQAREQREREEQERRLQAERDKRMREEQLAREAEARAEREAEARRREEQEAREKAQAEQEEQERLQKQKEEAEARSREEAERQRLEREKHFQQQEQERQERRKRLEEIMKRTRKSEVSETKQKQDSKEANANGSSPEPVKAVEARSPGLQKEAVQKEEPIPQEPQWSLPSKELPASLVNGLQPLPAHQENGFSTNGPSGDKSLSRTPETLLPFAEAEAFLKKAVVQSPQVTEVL
UniProt O94822: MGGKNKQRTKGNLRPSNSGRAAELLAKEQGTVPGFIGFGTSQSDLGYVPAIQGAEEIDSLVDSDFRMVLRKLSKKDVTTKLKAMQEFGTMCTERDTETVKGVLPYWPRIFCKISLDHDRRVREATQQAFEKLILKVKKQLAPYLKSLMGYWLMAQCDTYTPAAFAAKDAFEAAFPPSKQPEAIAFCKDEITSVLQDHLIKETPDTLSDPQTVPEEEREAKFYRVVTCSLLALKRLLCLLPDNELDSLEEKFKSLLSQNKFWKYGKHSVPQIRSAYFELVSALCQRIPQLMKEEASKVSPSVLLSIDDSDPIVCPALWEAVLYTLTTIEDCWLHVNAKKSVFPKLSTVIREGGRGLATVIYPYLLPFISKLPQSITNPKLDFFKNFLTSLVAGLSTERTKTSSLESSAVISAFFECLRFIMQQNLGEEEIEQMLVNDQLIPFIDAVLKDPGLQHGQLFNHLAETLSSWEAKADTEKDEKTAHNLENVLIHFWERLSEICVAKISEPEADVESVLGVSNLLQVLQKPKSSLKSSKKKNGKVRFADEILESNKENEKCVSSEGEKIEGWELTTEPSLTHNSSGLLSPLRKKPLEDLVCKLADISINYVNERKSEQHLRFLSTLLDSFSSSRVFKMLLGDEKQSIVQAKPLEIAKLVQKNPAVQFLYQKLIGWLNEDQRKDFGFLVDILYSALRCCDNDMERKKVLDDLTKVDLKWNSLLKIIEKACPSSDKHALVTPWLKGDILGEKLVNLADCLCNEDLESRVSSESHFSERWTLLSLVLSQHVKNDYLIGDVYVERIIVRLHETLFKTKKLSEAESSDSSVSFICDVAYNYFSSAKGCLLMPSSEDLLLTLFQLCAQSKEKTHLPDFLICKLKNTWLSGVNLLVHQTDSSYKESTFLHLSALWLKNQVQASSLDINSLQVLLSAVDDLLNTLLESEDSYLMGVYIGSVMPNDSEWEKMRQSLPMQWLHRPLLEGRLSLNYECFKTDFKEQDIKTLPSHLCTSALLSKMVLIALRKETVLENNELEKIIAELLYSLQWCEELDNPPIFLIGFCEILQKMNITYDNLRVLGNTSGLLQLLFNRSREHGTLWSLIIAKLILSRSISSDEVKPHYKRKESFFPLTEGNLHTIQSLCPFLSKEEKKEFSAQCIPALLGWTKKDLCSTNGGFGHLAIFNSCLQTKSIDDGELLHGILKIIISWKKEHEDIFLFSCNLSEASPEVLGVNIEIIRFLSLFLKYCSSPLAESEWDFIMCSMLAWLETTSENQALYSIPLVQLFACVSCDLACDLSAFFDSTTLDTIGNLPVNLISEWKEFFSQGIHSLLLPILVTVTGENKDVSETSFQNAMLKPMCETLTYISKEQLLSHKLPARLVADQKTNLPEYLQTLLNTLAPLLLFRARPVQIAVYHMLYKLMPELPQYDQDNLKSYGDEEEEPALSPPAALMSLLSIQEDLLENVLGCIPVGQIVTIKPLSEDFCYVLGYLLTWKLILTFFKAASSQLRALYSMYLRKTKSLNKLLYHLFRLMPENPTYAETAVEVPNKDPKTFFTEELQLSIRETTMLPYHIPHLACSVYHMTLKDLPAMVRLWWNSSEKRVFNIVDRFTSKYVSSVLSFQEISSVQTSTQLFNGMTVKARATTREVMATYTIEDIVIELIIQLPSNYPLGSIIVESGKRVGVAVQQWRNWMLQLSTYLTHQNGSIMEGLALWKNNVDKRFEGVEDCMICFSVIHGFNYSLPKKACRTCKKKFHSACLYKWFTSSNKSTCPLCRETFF
UniProt Q9NX47: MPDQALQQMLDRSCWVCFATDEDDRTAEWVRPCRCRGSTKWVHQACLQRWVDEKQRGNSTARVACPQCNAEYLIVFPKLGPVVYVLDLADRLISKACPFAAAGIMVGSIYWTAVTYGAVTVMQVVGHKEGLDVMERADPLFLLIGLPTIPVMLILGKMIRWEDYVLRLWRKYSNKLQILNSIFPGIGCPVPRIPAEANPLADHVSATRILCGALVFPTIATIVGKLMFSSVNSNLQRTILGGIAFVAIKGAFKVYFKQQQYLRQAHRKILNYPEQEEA
UniProt P43355: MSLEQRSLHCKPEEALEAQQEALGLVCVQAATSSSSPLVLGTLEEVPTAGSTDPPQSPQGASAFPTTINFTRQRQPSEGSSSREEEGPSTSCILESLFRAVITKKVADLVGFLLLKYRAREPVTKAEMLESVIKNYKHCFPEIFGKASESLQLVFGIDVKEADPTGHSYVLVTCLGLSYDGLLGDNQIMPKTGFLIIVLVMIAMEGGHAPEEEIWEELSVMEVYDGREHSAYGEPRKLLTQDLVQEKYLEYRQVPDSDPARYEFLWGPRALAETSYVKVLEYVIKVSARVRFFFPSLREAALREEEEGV
UniProt Q16539, whole entry, looked up: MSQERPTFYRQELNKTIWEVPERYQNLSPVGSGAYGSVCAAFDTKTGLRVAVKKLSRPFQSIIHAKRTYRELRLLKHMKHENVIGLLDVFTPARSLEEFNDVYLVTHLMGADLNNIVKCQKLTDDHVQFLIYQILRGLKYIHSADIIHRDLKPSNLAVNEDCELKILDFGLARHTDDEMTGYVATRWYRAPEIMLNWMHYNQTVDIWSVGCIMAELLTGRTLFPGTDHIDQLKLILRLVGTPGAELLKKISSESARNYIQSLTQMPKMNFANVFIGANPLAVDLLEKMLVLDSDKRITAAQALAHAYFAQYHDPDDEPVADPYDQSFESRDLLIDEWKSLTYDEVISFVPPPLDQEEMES
UniProt O43318: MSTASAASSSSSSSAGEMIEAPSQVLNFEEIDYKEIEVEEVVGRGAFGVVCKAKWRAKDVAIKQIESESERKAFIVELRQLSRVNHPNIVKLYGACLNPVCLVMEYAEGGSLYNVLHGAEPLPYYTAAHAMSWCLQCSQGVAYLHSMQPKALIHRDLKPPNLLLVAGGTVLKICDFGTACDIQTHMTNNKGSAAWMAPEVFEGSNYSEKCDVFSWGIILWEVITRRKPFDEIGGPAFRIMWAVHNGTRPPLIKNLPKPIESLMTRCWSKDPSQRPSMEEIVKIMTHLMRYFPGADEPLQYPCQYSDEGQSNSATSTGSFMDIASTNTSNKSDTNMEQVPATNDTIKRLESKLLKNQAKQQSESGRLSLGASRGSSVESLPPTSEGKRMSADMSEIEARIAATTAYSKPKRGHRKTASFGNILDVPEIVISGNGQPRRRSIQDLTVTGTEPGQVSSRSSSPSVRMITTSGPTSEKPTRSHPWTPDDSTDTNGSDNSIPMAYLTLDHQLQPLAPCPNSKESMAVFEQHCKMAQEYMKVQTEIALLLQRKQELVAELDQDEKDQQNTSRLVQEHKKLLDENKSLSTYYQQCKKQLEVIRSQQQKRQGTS
UniProt P43362: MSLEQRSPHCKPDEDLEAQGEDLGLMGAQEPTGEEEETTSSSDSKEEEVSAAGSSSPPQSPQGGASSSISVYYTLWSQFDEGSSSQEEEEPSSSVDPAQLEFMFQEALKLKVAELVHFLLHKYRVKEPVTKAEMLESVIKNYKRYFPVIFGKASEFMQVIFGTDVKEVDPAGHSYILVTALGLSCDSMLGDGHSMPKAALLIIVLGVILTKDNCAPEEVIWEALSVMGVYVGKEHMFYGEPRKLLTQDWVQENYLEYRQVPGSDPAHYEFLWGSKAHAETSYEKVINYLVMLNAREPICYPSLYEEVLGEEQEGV
UniProt Q9UI95, whole entry, looked up: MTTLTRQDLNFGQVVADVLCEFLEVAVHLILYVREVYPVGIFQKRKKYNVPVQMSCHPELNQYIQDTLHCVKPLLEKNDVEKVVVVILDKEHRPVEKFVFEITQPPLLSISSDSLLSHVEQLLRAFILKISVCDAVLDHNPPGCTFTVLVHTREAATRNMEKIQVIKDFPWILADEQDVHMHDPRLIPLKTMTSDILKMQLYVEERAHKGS
UniProt Q9Y4K4: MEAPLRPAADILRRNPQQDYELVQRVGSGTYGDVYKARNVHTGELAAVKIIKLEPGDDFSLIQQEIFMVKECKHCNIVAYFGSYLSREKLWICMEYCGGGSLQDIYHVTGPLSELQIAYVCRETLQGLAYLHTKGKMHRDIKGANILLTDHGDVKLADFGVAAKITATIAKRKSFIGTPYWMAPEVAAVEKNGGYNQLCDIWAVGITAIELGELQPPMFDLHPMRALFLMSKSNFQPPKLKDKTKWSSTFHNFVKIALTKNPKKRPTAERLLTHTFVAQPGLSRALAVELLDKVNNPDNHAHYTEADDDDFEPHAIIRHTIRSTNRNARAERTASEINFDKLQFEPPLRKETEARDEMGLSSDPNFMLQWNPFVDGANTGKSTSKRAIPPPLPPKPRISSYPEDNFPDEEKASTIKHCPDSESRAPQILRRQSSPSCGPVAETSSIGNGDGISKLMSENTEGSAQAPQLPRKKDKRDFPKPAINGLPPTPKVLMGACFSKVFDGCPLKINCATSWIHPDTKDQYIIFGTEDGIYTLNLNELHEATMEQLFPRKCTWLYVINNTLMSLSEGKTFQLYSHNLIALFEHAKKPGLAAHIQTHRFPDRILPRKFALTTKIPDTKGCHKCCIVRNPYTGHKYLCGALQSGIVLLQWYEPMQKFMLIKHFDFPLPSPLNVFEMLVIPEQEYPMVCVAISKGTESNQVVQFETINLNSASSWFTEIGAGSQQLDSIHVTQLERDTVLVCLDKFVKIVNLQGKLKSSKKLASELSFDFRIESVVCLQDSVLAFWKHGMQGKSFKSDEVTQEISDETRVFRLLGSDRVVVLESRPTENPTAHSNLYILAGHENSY
UniProt P43356, whole entry, looked up: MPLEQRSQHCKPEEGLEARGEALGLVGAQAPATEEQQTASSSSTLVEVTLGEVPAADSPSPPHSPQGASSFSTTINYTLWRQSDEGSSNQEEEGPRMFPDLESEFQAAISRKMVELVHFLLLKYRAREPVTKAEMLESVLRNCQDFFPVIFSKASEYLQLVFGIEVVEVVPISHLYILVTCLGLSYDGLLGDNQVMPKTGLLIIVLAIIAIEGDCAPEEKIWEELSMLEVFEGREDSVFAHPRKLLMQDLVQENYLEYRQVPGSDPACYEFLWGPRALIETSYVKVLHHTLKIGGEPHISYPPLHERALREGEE

How the values were obtained:
Assay in all cases: log2 fold change, soluble protein after heating vs DMSO (PISA); higher = thermal stabilisation; K562 lysate, 10 uM; active = over 0.2 and 3.5 SD of the protein, either way, in both replicates (recomputed)
erlotinib = compound: C#Cc1cccc(Nc2ncnc3cc(OCCOC)c(OCCOC)cc23)c1 [erlotinib]
Procedure, shortened: (§1)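 Soluble protein was defined as the supernatant remaining after 21,000xg for 90 min, following pooling of heated aliquots and adjustment to 0.5% NP-40 at 4°C. Before that, crude K562 extract at 1 mg/mL protein in PBS pH 7.4 with 1 mM MgCl2 was treated with 10 μM compound for 30 min and heated for 3 min across 48°C-58°C. Quantification used TMTpro 16plex LC-MS/MS with channel sums equalised, and values are log-two fold changes in thermal stability relative to solvent controls from duplicates.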

[1] = compound: C/C(=N\NC(=O)C1=CC(=CC=C1)S(=O)(=O)N2CCOCC2)/C3=C(C=CC(=C3)Cl)O
Procedure, shortened: as §1

[2] = compound: C1=CC(=CC=C1C2=NC3=C(N2)C=C(C=C3)C(=O)N)OC4=CC=C(C=C4)Cl
Procedure, shortened: as §1

[3] = compound: C1=CC2=C(C=CC(=C2)/C=C\3/C(=O)NC(=NCC4=CC=CS4)S3)N=C1
Procedure, shortened: as §1

[4] = compound: C1=CC2=NC=CN=C2C=C1/C=C/3\C(=O)NC(=O)S3
Procedure, shortened: as §1

[5] = compound: C1=CC=C(C=C1)C2=NC(=C(N2)C3=CC=NC=C3)C4=CC(=C(C=C4)Cl)O
Procedure, shortened: as §1

[6] = compound: C1=CC=C2C(=C1)C3=NNC4=CC=CC(=C43)C2=O
Procedure, shortened: as §1

[7] = compound: C1CCN(C1)C(=O)NC2=CC=CC(=C2)NC3=NC=C(C(=N3)NCCC4=CN=CN4)Br
Procedure, shortened: as §1

[8] = compound: C1CN(CCC1(CC2=CC=C(C=C2)Cl)N)C3=NC=NC4=C3C=CN4
Procedure, shortened: as §1

IRAK-1-4 Inhibitor I = compound: C1COCCN1CCN2C3=CC=CC=C3N=C2NC(=O)C4=CC(=CC=C4)[N+](=O)[O-] [IRAK-1-4 Inhibitor I]
Procedure, shortened: as §1

Measured: log2 fold change

M6PR (UniProt P20645)
inactive: erlotinib -0.044 | [1] -0.044 | [2] 0.023 | [3] 0.053 | [4] -0.039 | [5] 0.052 | [6] 0.004 | [7] -0.001 | [8] -0.04 | IRAK-1-4 Inhibitor I -0.027

MAD1L1 (UniProt Q9Y6D9)
inactive: erlotinib -0.036 | [1] 0.032 | [2] -0.022 | [3] 0.008 | [4] -0.027 | [5] 0.003 | [6] 0.002 | [7] -0.042 | [8] -0.007 | IRAK-1-4 Inhibitor I -0.03

MAPRE3 isoform 2 (UniProt Q9UPY8)
inactive: erlotinib 0.021 | [1] 0.04 | [2] -0.164 | [3] -0.053 | [4] -0.286 | [5] -0.002 | [6] 0.018 | IRAK-1-4 Inhibitor I 0.095

MAK16 (UniProt Q9BXY0)
inactive: erlotinib -0.012 | [1] -0.022 | [2] -0.09 | [3] 0.012 | [4] 0.002 | [5] 0.047 | [6] -0.054 | [7] -0.019 | [8] 0.031 | IRAK-1-4 Inhibitor I -0.039

MAGED1 isoform 2 (UniProt Q9Y5V3)
inactive: erlotinib 0.082 | [1] 0.292 | [2] 0.148 | [3] -0.208 | [4] -0.126 | [5] -0.025 | [6] -0.001 | IRAK-1-4 Inhibitor I 0.084

LTO1 (UniProt Q8WV07)
inactive: erlotinib 0.003 | [1] 0.034 | [2] 0.059 | [3] -0.123 | [4] -0.005 | [5] -0.006 | [6] 0.06 | [7] 0.102 | [8] -0.062 | IRAK-1-4 Inhibitor I -0.034

MAP3K20 (UniProt Q9NYL2)
inactive: erlotinib -0.007 | [1] -0.018 | [2] 0.011 | [3] -0.099 | [4] 0 | [5] 0.008 | [6] 0.032 | [7] -0.007 | [8] 0.023 | IRAK-1-4 Inhibitor I -0.009

MAP1B (UniProt P46821)
inactive: erlotinib -0.02 | [1] -0.012 | [2] 0.009 | [3] -0.006 | [4] -0.008 | [5] 0.012 | [6] 0.004 | [7] -0.002 | [8] 0 | IRAK-1-4 Inhibitor I 0.011

MAPK9 (UniProt P45984)
active: [6] 0.393
inactive: erlotinib -0.001 | [1] 0.017 | [2] -0.018 | [3] -0.015 | [4] 0.014 | [5] 0.068 | [7] 0.061 | [8] -0.032 | IRAK-1-4 Inhibitor I -0.014

LZIC isoform 2 (UniProt Q8WZA0)
inactive: erlotinib -0.017 | [1] 0.062 | [2] -0.002 | [3] -0.006 | [4] -0.016 | [5] 0.019 | [6] -0.014 | [7] 0.024 | [8] -0.011 | IRAK-1-4 Inhibitor I -0.019

MAP1S (UniProt Q66K74)
inactive: erlotinib 0.027 | [1] 0 | [2] -0.023 | [3] -0.016 | [4] -0.018 | [5] 0.003 | [6] -0.027 | [7] -0.044 | [8] 0.005 | IRAK-1-4 Inhibitor I 0.01

MAP7D1 (UniProt Q3KQU3)
inactive: erlotinib 0.004 | [1] -0.003 | [2] -0.009 | [3] 0.001 | [4] -0.003 | [5] 0.031 | [6] 0.006 | [7] 0.018 | [8] -0.006 | IRAK-1-4 Inhibitor I 0.028

LTN1 isoform 3 (UniProt O94822)
inactive: erlotinib 0.028 | [1] 0.021 | [2] -0.065 | [3] -0.005 | [4] 0.003 | [5] -0.022 | [6] -0.045 | [7] -0.019 | [8] 0.023 | IRAK-1-4 Inhibitor I 0.006

MARCHF5 (UniProt Q9NX47)
inactive: erlotinib -0.004 | [1] -0.125 | [2] -0.018 | [3] 0 | [4] -0.013 | [5] -0.022 | [6] -0.036 | [7] -0.03 | [8] 0.043 | IRAK-1-4 Inhibitor I 0.078

MAPKAPK3 (UniProt Q16644)
inactive: erlotinib -0.007 | [1] -0.088 | [2] 0.042 | [3] 0.022 | [4] -0.014 | [5] -0.01 | [6] -0.034 | [7] 0.045 | [8] -0.052 | IRAK-1-4 Inhibitor I -0.035

MAP3K4 (UniProt Q9Y6R4)
inactive: erlotinib 0.051 | [1] -0.027 | [2] -0.026 | [3] 0.011 | [4] -0.014 | [5] 0.018 | [6] 0.105 | [7] 0.051 | [8] -0.101 | IRAK-1-4 Inhibitor I -0.013

LUC7L2 (UniProt Q9Y383)
inactive: erlotinib -0.003 | [1] 0.019 | [2] -0.036 | [3] 0.004 | [4] -0.035 | [5] -0.007 | [6] 0.033 | [7] 0.022 | [8] -0.024 | IRAK-1-4 Inhibitor I -0.029

LZTFL1 (UniProt Q9NQ48)
inactive: erlotinib -0.035 | [1] 0.045 | [2] -0.016 | [3] 0.016 | [4] -0.005 | [5] -0.063 | [6] -0.011 | [7] 0.002 | [8] -0.016 | IRAK-1-4 Inhibitor I 0.004

LYSMD1 (UniProt Q96S90)
inactive: erlotinib -0.015 | [1] -0.033 | [2] 0.107 | [3] -0.018 | [4] -0.02 | [5] 0.009 | [6] 0.008 | [7] 0.016 | [8] -0.046 | IRAK-1-4 Inhibitor I 0.023

MAGEA1 (UniProt P43355)
inactive: erlotinib -0.054 | [1] 0.088 | [2] -0.005 | [3] 0.042 | [4] -0.007 | [5] -0.003 | [6] 0.048 | [7] -0.009 | [8] -0.034 | IRAK-1-4 Inhibitor I -0.004

MAEA (UniProt Q7L5Y9)
inactive: erlotinib -0.035 | [1] 0.007 | [2] -0.042 | [3] -0.031 | [4] -0.011 | [5] -0.02 | [6] 0.017 | [7] -0.008 | [8] -0.018 | IRAK-1-4 Inhibitor I -0.033

MAPK14 (UniProt Q16539)
inactive: erlotinib 0.044 | [1] 0.038 | [2] -0.1 | [3] -0.05 | [4] -0.012 | [6] 0.081 | [7] -0.076 | [8] 0.015 | IRAK-1-4 Inhibitor I 0.013
active: [5] 0.82

LYN (UniProt P07948)
inactive: erlotinib 0.054 | [1] -0.047 | [2] 0.026 | [3] -0.011 | [4] -0.07 | [5] -0.022 | [6] 0.025 | [7] 0.07 | [8] -0.042 | IRAK-1-4 Inhibitor I 0.487

MAP3K7 (UniProt O43318)
inactive: erlotinib 0.004 | [1] -0.072 | [2] -0.015 | [3] 0.012 | [4] -0.02 | [5] 0.028 | [6] 0.029 | [7] -0.041 | [8] 0.022 | IRAK-1-4 Inhibitor I 0.038

MAML1 (UniProt Q92585)
inactive: erlotinib -0.009 | [1] 0.007 | [2] -0.026 | [3] -0.004 | [4] -0.023 | [5] 0.084 | [6] 0.275 | [7] -0.065 | [8] 0.009 | IRAK-1-4 Inhibitor I 0.02

MAGEA9 (UniProt P43362)
inactive: erlotinib 0.001 | [1] -0.118 | [2] -0.027 | [3] -0.015 | [4] -0.044 | [5] -0.005 | [6] -0.051 | [7] 0.012 | [8] 0.022 | IRAK-1-4 Inhibitor I 0.03

MAPRE3 (UniProt Q9UPY8)
inactive: erlotinib -0.007 | [1] -0.005 | [2] -0.004 | [3] 0.066 | [4] 0.022 | [5] 0.011 | [6] 0.025 | [7] 0.02 | [8] 0.027 | IRAK-1-4 Inhibitor I -0.01

MAIP1 (UniProt Q8WWC4)
inactive: erlotinib 0.02 | [1] -0.025 | [2] -0.069 | [3] 0.04 | [4] 0.012 | [5] -0.007 | [6] -0.016 | [7] 0.033 | [8] 0.039 | IRAK-1-4 Inhibitor I 0.001

MAD2L2 (UniProt Q9UI95)
inactive: erlotinib 0.173 | [1] 0.004 | [2] 0.209 | [3] -0.035 | [4] 0.035 | [5] -0.09 | [6] -0.101 | [7] 0.094 | [8] 0.102 | IRAK-1-4 Inhibitor I 0.004

LYPLAL1 (UniProt Q5VWZ2)
inactive: erlotinib 0.007 | [1] 0.052 | [2] 0.015 | [3] 0.003 | [4] -0.006 | [5] 0.01 | [6] -0.033 | [7] -0.027 | [8] 0.025 | IRAK-1-4 Inhibitor I 0.019

MAT2A (UniProt P31153)
inactive: erlotinib -0.019 | [1] 0.024 | [2] 0.017 | [3] -0.003 | [4] -0.011 | [5] -0.006 | [6] -0.006 | [7] 0.016 | [8] 0 | IRAK-1-4 Inhibitor I 0.012

MAP4K5 (UniProt Q9Y4K4)
inactive: erlotinib 0.032 | [1] -0.169 | [2] -0.025 | [3] -0.019 | [4] -0.002 | [5] 0.039 | [7] 0.089 | [8] -0.04 | IRAK-1-4 Inhibitor I -0.001

MAGEA2 (UniProt P43356)
inactive: [7] 0.004 | [8] -0.053

MAP3K5 (UniProt Q99683)
inactive: [1] -0.142 | [3] -0.046 | [4] -0.121 | [5] 0.006 | [6] 0.088 | [7] 0.152 | [8] 0.051 | IRAK-1-4 Inhibitor I 0.017
